According to the supplement of paper PMC7666118:
The other results are listed elsewhere or left out.

Sequences of proteins named here, by UniProt entry; tags and fusion partners are left off. A change or cut given only in a name is not applied to a line headed by its entry.
UniProt O95391: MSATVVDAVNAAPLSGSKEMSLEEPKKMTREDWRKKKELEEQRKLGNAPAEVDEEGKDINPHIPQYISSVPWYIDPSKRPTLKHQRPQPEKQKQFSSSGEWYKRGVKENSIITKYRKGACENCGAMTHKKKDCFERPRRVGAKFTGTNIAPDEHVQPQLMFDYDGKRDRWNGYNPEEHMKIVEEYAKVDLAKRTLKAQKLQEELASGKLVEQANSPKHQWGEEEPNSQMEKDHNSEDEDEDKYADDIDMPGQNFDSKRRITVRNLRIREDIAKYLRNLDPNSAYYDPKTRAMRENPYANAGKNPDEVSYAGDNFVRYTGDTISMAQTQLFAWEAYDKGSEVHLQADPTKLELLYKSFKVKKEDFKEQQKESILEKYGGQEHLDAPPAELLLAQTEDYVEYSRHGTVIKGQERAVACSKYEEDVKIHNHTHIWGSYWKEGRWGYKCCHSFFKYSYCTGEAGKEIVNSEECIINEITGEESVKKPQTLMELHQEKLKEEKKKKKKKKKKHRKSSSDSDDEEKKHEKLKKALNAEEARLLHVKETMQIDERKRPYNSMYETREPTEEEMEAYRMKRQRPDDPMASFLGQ
UniProt Q86US8: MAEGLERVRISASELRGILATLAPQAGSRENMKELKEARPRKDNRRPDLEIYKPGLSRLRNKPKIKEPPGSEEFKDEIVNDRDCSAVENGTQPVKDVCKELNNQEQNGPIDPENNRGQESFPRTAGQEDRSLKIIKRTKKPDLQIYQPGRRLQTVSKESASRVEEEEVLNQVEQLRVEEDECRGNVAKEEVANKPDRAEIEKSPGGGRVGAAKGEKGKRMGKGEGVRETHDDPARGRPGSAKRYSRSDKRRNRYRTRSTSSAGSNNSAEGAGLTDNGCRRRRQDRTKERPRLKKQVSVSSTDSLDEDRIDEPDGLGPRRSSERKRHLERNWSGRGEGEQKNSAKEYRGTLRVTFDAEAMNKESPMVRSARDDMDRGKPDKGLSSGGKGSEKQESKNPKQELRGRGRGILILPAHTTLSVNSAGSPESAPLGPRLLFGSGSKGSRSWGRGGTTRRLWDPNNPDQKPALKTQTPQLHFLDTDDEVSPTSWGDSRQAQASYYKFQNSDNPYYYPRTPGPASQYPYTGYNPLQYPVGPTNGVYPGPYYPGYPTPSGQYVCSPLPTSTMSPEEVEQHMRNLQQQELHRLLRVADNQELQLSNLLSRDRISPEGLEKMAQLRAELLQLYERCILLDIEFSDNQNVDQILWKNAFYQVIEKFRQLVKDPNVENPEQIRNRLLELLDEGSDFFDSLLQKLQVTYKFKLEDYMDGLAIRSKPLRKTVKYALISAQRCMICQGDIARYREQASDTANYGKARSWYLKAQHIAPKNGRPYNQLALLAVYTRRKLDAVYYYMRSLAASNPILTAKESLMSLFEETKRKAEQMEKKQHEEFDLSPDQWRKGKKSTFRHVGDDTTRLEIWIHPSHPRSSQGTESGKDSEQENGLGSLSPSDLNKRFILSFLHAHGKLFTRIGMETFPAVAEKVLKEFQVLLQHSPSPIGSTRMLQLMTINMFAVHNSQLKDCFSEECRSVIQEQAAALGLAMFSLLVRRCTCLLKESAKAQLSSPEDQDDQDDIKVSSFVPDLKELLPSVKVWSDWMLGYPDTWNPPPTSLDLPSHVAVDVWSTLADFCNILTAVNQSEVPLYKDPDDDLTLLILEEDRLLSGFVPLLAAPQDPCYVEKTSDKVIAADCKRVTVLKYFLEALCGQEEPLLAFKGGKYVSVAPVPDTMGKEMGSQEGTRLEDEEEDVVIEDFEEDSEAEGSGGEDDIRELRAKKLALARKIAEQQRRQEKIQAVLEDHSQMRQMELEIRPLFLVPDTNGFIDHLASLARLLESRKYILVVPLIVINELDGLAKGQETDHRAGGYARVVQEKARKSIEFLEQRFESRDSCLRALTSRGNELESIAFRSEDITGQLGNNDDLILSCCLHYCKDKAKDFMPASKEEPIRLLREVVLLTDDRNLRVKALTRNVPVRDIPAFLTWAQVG
UniProt Q96ST3: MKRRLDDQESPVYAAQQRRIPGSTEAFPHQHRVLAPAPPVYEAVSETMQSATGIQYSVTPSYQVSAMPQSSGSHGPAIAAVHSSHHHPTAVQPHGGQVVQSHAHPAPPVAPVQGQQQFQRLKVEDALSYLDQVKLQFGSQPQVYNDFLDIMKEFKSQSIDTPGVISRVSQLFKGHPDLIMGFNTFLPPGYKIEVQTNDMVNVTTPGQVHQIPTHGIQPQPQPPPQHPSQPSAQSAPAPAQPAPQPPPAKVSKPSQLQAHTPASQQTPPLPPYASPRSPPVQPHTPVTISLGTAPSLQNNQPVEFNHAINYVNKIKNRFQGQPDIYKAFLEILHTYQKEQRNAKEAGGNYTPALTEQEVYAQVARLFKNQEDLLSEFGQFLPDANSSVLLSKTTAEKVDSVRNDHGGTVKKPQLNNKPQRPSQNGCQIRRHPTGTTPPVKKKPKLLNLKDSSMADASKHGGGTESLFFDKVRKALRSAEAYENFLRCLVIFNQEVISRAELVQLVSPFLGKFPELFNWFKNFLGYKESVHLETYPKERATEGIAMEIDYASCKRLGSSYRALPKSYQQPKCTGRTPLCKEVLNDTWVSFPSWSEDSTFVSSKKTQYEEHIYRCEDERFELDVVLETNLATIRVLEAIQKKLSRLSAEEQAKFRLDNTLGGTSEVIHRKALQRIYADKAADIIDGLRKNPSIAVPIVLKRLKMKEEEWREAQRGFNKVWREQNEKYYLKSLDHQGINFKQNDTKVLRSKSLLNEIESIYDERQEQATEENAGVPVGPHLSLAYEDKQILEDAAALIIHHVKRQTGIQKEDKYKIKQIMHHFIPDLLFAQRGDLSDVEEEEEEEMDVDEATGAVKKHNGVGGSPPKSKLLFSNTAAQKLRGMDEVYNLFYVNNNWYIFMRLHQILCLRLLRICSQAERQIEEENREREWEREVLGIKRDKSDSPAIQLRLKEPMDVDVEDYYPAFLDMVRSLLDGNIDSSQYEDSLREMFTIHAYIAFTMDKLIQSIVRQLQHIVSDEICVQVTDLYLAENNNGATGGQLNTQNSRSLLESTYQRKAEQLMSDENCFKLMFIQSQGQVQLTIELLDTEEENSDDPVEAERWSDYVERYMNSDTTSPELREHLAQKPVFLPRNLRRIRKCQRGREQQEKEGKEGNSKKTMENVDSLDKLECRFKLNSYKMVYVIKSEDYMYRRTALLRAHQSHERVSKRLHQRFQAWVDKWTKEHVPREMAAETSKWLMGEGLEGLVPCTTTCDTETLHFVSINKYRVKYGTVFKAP
UniProt P52569: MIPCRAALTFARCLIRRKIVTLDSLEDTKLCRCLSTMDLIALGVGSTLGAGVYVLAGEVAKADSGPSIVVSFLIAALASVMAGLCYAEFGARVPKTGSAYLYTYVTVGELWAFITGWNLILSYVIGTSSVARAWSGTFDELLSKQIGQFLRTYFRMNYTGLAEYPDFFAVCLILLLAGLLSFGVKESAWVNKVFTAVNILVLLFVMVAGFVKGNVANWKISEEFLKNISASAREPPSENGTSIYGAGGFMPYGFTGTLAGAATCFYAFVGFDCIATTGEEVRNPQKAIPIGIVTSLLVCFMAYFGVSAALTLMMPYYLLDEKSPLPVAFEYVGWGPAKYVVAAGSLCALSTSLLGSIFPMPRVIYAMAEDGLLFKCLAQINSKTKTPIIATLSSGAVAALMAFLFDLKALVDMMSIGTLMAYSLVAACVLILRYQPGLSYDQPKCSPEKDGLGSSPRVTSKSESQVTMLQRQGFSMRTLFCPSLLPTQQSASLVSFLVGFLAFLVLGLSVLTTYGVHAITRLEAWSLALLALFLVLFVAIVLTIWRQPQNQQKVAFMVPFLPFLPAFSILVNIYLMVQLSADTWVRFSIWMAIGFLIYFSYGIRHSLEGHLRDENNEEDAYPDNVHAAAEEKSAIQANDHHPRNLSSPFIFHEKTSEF
UniProt Q96EB6: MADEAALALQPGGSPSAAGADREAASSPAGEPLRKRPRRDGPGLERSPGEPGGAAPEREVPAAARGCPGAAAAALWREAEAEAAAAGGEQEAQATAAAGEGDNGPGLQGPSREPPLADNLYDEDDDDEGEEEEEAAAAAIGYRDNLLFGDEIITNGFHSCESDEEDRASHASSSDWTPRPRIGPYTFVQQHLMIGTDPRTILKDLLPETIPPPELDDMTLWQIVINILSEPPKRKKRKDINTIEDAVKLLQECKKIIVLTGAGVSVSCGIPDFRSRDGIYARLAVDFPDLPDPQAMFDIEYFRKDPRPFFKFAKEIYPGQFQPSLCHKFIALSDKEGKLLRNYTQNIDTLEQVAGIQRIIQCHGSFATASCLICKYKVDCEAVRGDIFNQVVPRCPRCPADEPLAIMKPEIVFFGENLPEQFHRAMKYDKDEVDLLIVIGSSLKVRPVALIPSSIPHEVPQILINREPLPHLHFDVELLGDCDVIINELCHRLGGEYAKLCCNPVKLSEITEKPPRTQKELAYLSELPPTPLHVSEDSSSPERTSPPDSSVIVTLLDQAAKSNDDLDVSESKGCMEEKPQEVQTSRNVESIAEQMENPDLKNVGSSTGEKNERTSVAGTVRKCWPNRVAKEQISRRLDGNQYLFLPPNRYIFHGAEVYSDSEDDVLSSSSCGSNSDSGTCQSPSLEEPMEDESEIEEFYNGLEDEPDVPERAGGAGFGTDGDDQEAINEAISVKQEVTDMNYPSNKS
UniProt Q07955, whole entry: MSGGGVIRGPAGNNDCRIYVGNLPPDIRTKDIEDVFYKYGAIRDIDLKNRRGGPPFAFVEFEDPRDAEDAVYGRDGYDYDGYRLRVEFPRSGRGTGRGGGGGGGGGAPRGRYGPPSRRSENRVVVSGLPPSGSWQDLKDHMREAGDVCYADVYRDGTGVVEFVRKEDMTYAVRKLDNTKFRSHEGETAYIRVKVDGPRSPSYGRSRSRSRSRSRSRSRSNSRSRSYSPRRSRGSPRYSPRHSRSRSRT
UniProt P62314, whole entry: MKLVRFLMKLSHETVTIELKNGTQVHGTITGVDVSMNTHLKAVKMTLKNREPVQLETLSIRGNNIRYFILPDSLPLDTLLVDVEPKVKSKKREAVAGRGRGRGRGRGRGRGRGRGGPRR
UniProt P22732: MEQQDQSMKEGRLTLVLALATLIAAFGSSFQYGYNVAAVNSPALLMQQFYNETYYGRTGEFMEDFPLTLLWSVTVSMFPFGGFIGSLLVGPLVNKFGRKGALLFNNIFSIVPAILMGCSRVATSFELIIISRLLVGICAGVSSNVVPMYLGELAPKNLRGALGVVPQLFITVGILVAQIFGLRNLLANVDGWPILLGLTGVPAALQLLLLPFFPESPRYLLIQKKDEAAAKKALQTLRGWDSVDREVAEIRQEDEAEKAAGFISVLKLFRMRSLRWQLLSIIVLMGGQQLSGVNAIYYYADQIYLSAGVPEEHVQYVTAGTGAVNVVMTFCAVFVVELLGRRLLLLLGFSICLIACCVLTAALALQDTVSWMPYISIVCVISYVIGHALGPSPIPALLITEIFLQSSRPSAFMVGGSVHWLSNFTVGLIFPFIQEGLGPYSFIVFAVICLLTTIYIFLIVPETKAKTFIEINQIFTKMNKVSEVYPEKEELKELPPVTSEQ
UniProt Q8TEV9: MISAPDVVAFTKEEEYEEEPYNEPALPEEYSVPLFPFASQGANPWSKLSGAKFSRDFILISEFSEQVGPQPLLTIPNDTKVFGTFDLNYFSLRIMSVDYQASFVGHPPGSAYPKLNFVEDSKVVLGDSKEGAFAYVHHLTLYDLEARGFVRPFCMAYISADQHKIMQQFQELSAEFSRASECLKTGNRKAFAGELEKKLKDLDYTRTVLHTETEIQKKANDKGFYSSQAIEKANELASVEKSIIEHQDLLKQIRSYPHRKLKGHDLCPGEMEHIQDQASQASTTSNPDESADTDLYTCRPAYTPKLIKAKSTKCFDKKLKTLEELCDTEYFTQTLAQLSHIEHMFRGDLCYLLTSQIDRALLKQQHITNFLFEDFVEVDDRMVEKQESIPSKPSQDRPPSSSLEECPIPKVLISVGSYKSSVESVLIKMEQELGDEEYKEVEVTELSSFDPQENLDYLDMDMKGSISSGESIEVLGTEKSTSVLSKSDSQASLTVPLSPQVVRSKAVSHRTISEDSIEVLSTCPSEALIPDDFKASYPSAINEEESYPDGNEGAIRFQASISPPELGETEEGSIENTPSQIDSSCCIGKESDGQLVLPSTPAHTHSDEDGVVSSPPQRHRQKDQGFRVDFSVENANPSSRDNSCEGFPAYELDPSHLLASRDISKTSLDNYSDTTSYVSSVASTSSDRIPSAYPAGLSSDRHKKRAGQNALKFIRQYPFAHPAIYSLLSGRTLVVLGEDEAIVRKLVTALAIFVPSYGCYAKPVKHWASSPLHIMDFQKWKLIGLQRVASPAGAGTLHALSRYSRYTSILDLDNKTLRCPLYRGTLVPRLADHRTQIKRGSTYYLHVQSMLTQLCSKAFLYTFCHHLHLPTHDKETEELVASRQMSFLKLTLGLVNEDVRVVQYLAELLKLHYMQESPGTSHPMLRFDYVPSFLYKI

These targets were tested with COc1ccc(Cn2ccc3cc(C)c(C(=O)NO)cc32)cc1 (assay: dose-dependent thermal stabilisation call (2D-TPP, DLPTP, 10% FDR) (binary (1 = stabilised)); higher = stabilised by the compound). Settings: system: HL-60 intact cells; concentration range 0.04-10 µM.
Method: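 2D thermal proteome profiling in intact HL-60 cells treated with BRD-3811 (0, 0.04, 0.29, 2, 10 uM) for 90 min at 37 C, then heated 3 min at one of 12 temperatures (42-63.9 C). Soluble protein was quantified by TMT10 MS. The value is the DLPTP call of the paper: dose-dependent thermal stabilisation over all temperatures at 10% FDR (F-test of a dose-response against a flat model); one experiment, one call per tested protein.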

Target	dose-dependent thermal stabilisation call
SLU7 (UniProt O95391)	inactive: 0
SMG6 (UniProt Q86US8)	inactive: 0
SIN3A (UniProt Q96ST3)	inactive: 0
SLC7A2 (UniProt P52569)	inactive: 0
SIRT1 (UniProt Q96EB6)	inactive: 0
SFRS1 (UniProt Q07955)	inactive: 0
SLC15A4 (UniProt Q8N697)	inactive: 0
SNRPD1 (UniProt P62314)	inactive: 0
SLC2A5 (UniProt P22732)	inactive: 0
SMCR8 (UniProt Q8TEV9)	inactive: 0
